According to the supplement of paper PMC10331698:
± gives the standard deviation of the averaged measurements. Most values lie at the level of the controls, where differences are scatter.

Experiments:
Assay in all cases: level (log10 ratio to DMSO vehicle control); higher = higher biomarker level / cell amount than vehicle control
[1] = compound: NC(=O)C(F)(F)C(F)(F)F [Pentafluoropropionamide]; details: 2200 nM; in DMSO
Method: (§1)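 BioMAP Diversity Plus panel of 12 human primary cell co-culture systems (3C, 4H, LPS, SAg, BT, BF4T, BE3C, CASM3C, HDF3CGF, KF3CT, MyoF, Mphg). Compounds were added 1 h before stimulation and left for 24 h (MyoF 48 h; BT 72 h for soluble read-outs or 6 d for IgG). Biomarkers were read by ELISA, cytotoxicity by SRB, PBMC viability and proliferation by Alamar Blue. Each well value was divided by the mean of 8 DMSO control wells on the same plate and log10 transformed; duplicate blinded samples were tested at 4 concentrations.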

[2] = compound: FC(F)(F)C(F)(F)C(F)(F)CC1CO1 [1H,1H-Heptafluorobutyl epoxide]; details: 2200 nM; in DMSO
Method: as §1

[3] = compound: O=C(O)C(F)(F)C(F)(F)C(F)F [4H-Perfluorobutanoic acid]; details: in DMSO
Method: as §1

[4] = compound: O=S(=O)(O)C(F)(F)C(F)(F)C(F)(F)C(F)(F)C(F)(F)C(F)(F)C(F)(F)C(F)(F)F [Potassium perfluorooctanesulfonate]; details: 2200 nM; in DMSO
Method: as §1

[5] = compound: C=CC(F)(F)C(F)(F)C(F)(F)C(F)(F)C(F)(F)C(F)(F)C(F)(F)C(F)(F)C=C [1,8-Divinylperfluorooctane]; details: in DMSO
Method: as §1

[6] = compound: COC(=O)C(F)(F)C(F)(F)OC(F)(C(F)(F)F)C(F)(F)OC(F)=C(F)F [Methyl perfluoro(3-(1-ethenyloxypropan-2-yloxy)propanoate)]; details: in DMSO
Method: as §1

[7] = compound: O=P(O)(O)CCC(F)(F)C(F)(F)C(F)(F)C(F)(F)C(F)(F)C(F)(F)F [2-(Perfluorohexyl)ethylphosphonic acid]; details: 2200 nM; in DMSO
Method: as §1

[8] = compound: FC(F)(F)C(F)(F)C(F)(F)CI [Heptafluorobutyl iodide]; details: 2200 nM; in DMSO
Method: as §1

[9] = compound: O=S(=O)(F)C(F)(F)C(F)(F)C(F)(F)C(F)(F)C(F)(F)C(F)(F)C(F)(F)C(F)(F)F [Perfluorooctanesulfonyl fluoride]; details: 2200 nM; in DMSO
Method: as §1

[10] = compound: OCC(F)(F)C(F)(F)C(F)(F)C(F)(F)C(F)(F)C(F)F [1H,1H,7H-Dodecafluoro-1-heptanol]; details: 2200 nM; in DMSO
Method: as §1

[11] = compound: CO[Si](C)(CCC(F)(F)C(F)(F)C(F)(F)C(F)(F)C(F)(F)C(F)(F)F)OC [Dimethoxymethyl((perfluorohexyl)ethyl)silane]; details: in DMSO
Method: as §1

[12] = compound: O=S(=O)(O)C(F)(F)C(F)(F)C(F)(F)C(F)(F)C(F)(F)C(F)(F)C(F)(F)C(F)(F)F [Perfluorooctanesulfonic acid]; details: 2200 nM; in DMSO
Method: as §1

[13] = compound: OCCCCC(F)(F)C(F)(F)C(F)(F)C(F)(F)F [4:4 Fluorotelomer alcohol]; details: 2200 nM; in DMSO
Method: as §1

[14] = compound: NS(=O)(=O)C(F)(F)C(F)(F)C(F)(F)C(F)(F)C(F)(F)C(F)(F)C(F)(F)C(F)(F)F [Perfluorooctanesulfonamide]; details: in DMSO
Method: as §1

[15] = compound: O=S(=O)(OCC(F)(F)F)C(F)(F)C(F)(F)C(F)(F)C(F)(F)F [2,2,2-Trifluoroethyl perfluorobutanesulfonate]; details: 2200 nM; in DMSO
Method: as §1

[16] = compound: NC(=O)C(F)(F)C(F)(F)C(F)(F)C(F)F; details: in DMSO
Method: as §1

[17] = compound: C=CC(=O)OCC(F)(F)C(F)(F)C(F)(F)C(F)(F)C(F)(F)C(F)(F)C(F)(F)F [1H,1H-Perfluorooctyl acrylate]; details: 2200 nM; in DMSO
Method: as §1

[18] = compound: C=C(C)C(=O)OCC(F)(F)C(F)(F)C(F)(F)C(F)(F)C(F)(F)C(F)(F)C(F)(F)F; details: in DMSO
Method: as §1

Test System	level (log10) [1]	level (log10) [2]	level (log10) ([3]; 2200 nM)	level (log10) ([3]; 6700 nM)	level (log10) ([3]; 20000 nM)	level (log10) ([3]; 60000 nM)	level (log10) [4]	level (log10) ([5]; 740 nM)	level (log10) ([5]; 2200 nM)	level (log10) ([6]; 740 nM)	level (log10) ([6]; 2200 nM)	level (log10) [7]	level (log10) [8]	level (log10) [9]	level (log10) [10]	level (log10) ([11]; 740 nM)	level (log10) ([11]; 2200 nM)	level (log10) [12]	level (log10) [13]	level (log10) ([14]; 2200 nM)	level (log10) ([14]; 6700 nM)	level (log10) ([14]; 20000 nM)	level (log10) [15]	level (log10) ([16]; 2200 nM)	level (log10) ([16]; 6700 nM)	level (log10) ([16]; 20000 nM)	level (log10) ([16]; 60000 nM)	level (log10) [17]	level (log10) ([18]; 740 nM)	level (log10) ([18]; 2200 nM)
3C:CXCL8/IL-8	0.0125 ± 0.036	-0.012 ± 0.05	0.02 ± 0.04	-0.0015 ± 0.054	0.009 ± 0.0071	0.0395 ± 0.042	0.032 ± 0.067	0.0145 ± 0.023	-0.017 ± 0.0028	0.0135 ± 0.063	-0.0245 ± 0.021	0.0135 ± 0.09	-0.02 ± 0.034	0 ± 0.02	0.0175 ± 0.057	0.003 ± 0.0099	-0.011 ± 0.0071	0.016 ± 0.0042	0.02 ± 0.044	0.0275 ± 0.0092	0.012 ± 0.018	0.0635 ± 0.0064	-0.006 ± 0.014	0.0165 ± 0.035	0.0025 ± 0.016	-0.007 ± 0.0042	0.012 ± 0.0099	0.005 ± 0.024	0.0255 ± 0.067	0.002 ± 0.064
3C:CXCL9/MIG	0.0025 ± 0.0064	0.0005 ± 0.0035	-0.0025 ± 0.0021	0.005 ± 0.0042	0.0035 ± 0.013	0.012 ± 0.0014	0.002 ± 0.0099	-0.0065 ± 0.021	-0.009 ± 0.0042	0.0025 ± 0.018	-0.01 ± 0.0071	0.001 ± 0.0042	-0.005 ± 0.0028	-0.004 ± 0.014	-0.0015 ± 0.0078	0.0085 ± 0.0078	-0.0055 ± 0.005	0.0035 ± 0.011	0.0145 ± 0.00071	0.028 ± 0.0028	0.0225 ± 0.021	0.006 ± 0.028	0.0075 ± 0.0064	-0.0025 ± 0.0078	-0.0095 ± 0.011	-0.012 ± 0.0014	-0.0045 ± 0.0021	-0.0045 ± 0.019	0.0025 ± 0.0021	0.0005 ± 0.011
3C:HLA-DR	-0.0095 ± 0.0021	0.0055 ± 0.025	-0.0145 ± 0.0035	-0.003 ± 0.0057	-0.013 ± 0.011	0.011 ± 0.014	0.0275 ± 0.026	0.0035 ± 0.0021	-0.008 ± 0.025	-0.003 ± 0.038	-0.007 ± 0.028	0.0005 ± 0.025	-0.0145 ± 0.0021	0.0065 ± 0.021	0.007 ± 0.0057	-0.007 ± 0.024	0.022 ± 0.0085	0.01 ± 0.0028	0.022 ± 0.041	0.002 ± 0.0057	-0.0115 ± 0.043	-0.118 ± 0.082	-0.0065 ± 0.0035	-0.006 ± 0.04	-0.006 ± 0.02	-0.002 ± 0.016	-0.005 ± 0.014	0.0075 ± 0.028	-0.008 ± 0.011	-0.018 ± 0.013
3C:Proliferation	-0.023 ± 0.038	-0.0485 ± 0.019	-0.032 ± 0.078	-0.023 ± 0.02	-0.03 ± 0.041	0.013 ± 0.065	-0.0745 ± 0.067	-0.0405 ± 0.087	-0.062 ± 0.033	-0.044 ± 0.014	-0.03 ± 0.016	-0.0505 ± 0.047	-0.0085 ± 0.029	0.022 ± 0.052	-0.029 ± 0.064	-0.0315 ± 0.061	-0.0245 ± 0.039	0.015 ± 0.082	-0.029 ± 0.057	-0.0515 ± 0.016	-0.039 ± 0.0099	-0.208 ± 0.02	-0.0165 ± 0.066	0 ± 0.083	-0.0385 ± 0.049	-0.038 ± 0.061	-0.03 ± 0.031	-0.0005 ± 0.059	-0.0615 ± 0.044	-0.011 ± 0.052
3C:SRB	0.0125 ± 0.011	0.0055 ± 0.025	-0.006 ± 0.0099	0.0015 ± 0.0064	-0.007 ± 0.016	-0.0075 ± 0.013	0.0035 ± 0.019	0.022 ± 0.0071	0.03 ± 0.018	-0.0025 ± 0.0092	-0.0005 ± 0.0035	-0.007 ± 0.021	0.0025 ± 0.0078	-0.004 ± 0.0028	0.0005 ± 0.012	0.021 ± 0.014	-0.002 ± 0.038	0.004 ± 0.016	-0.009 ± 0.016	0.0225 ± 0.023	0.0135 ± 0.022	-0.088 ± 0.0042	-0.0095 ± 0.0021	-0.033 ± 0.025	-0.0075 ± 0.019	-0.013 ± 0.0014	-0.019 ± 0.023	0.0025 ± 0.011	0.0315 ± 0.0064	0.017 ± 0.017
4H:CCL2/MCP-1	0.0285 ± 0.043	-0.0115 ± 0.066	-0.0065 ± 0.05	-0.066 ± 0.047	-0.0555 ± 0.029	-0.0005 ± 0.028	0.033 ± 0.061	0.0225 ± 0.042	-0.0095 ± 0.019	0.0275 ± 0.049	0.0105 ± 0.0035	-0.0015 ± 0.061	-0.01 ± 0.02	0.0115 ± 0.028	-0.0015 ± 0.057	0.011 ± 0.062	-0.046 ± 0.0014	0.0115 ± 0.066	0.0205 ± 0.025	-0.035 ± 0.11	-0.093 ± 0.023	-0.124 ± 0.0021	-0.02 ± 0.023	-0.004 ± 0.088	-0.0155 ± 0.032	-0.039 ± 0.031	0.029 ± 0.04	-0.0025 ± 0.021	0.0275 ± 0.069	-0.0305 ± 0.018
4H:CCL26/Eotaxin-3	0.022 ± 0.0014	0.004 ± 0.014	-0.0115 ± 0.005	-0.0165 ± 0.012	-0.008 ± 0.011	0.008 ± 0.0085	0.0215 ± 0.037	0 ± 0.017	0.012 ± 0.011	0.0075 ± 0.011	0.0135 ± 0.0021	-0.0105 ± 0.12	0.0245 ± 0.049	0.0005 ± 0.0078	0.019 ± 0.02	0.019 ± 0.062	-0.001 ± 0.033	0.0085 ± 0.044	0.0325 ± 0.053	0.0025 ± 0.00071	-0.0145 ± 0.013	-0.03 ± 0.042	-0.0005 ± 0.013	0.01 ± 0.035	0.0095 ± 0.037	0.0315 ± 0.029	0.0275 ± 0.016	0.0075 ± 0.029	0.0135 ± 0.016	0.035 ± 0.041
4H:CD62P/P-selectin	-0.0365 ± 0.059	0.0185 ± 0.035	0.017 ± 0.033	-0.0185 ± 0.042	0.0005 ± 0.057	-0.011 ± 0.04	0.0235 ± 0.005	-0.039 ± 0.041	-0.0145 ± 0.00071	0.004 ± 0.05	0.0345 ± 0.019	0.0065 ± 0.021	-0.056 ± 0.028	0.0205 ± 0.079	0.014 ± 0.13	0.005 ± 0.055	-0.0135 ± 0.016	0.022 ± 0.0099	-0.0195 ± 0.0021	0.018 ± 0.011	0.028 ± 0.014	-0.0235 ± 0.018	-0.045 ± 0.014	-0.0305 ± 0.029	-0.017	-0.017 ± 0.031	0.0195 ± 0.029	-0.0025 ± 0.028	0.0095 ± 0.039	-0.0085 ± 0.059
